{"sequences": {"note": "By UniProt entry, the sequences of proteins in these tests, tags left out.", "UniProt P51692": "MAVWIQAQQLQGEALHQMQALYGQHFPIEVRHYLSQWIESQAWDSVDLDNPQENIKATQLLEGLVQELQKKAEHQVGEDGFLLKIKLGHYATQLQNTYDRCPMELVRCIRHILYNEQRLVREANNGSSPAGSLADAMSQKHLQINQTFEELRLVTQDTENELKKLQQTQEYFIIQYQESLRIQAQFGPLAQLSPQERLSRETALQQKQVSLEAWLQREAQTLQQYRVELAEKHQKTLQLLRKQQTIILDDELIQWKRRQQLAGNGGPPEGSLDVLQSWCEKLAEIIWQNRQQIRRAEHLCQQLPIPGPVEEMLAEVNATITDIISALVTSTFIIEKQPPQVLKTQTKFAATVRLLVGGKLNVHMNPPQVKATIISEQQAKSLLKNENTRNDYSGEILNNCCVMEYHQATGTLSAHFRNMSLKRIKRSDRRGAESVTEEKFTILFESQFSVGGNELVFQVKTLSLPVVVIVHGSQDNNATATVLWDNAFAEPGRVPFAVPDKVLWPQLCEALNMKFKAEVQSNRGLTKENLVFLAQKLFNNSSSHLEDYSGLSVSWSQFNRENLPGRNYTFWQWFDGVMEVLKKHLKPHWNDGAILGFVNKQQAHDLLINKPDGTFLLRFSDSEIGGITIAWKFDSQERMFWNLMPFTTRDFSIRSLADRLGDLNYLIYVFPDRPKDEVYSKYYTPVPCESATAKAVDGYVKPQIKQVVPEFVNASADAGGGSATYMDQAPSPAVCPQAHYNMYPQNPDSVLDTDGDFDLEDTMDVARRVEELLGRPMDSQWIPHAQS"}, "source": "paper PMC5113070", "molecular_target": "STAT5B (UniProt P51692)", "assay": "co-IP; The paper calls it a pull-down assay. Caco-2 cells co-transfected with STAT5B-Flag and STAT5B-GFP were pre-treated for 6 h with osmium complex 1, the positive control compound or vehicle, then stimulated with prolactin (200 ng/mL). 30 ug of lysate was incubated with anti-Flag M2 magnetic beads for 1 h at room temperature in TBS (50 mM Tris HCl, 150 mM NaCl, pH 7.4). Detection was by immunoblot with anti-FLAG and anti-GFP.", "note": "No constants are given. Whether binding was seen depends on the method and setting. In cells and extracts the contact can be indirect. Some results given as binding are weak or reduced against the parent protein; the word gives no strength.", "data": [{"substance": "STAT5B (from UniProt P51692 1-787)", "values": [{"measurement": "binding", "result": "binds"}]}]}
